Data reported in PubChem BioAssay AID212 (DTP/NCI, 2004).
The list shows only some results of the screen, not a fair sample: it is rich in T/C values a quarter to a half above the control, in often repeated tests (any T/C) and in doses without a T/C. Other doses and runs of a compound stand elsewhere. T/C is the treated group as % of the vehicle group. Schedules are NCI's codes, taken here to give the interval after Q, in days (D) or hours (H), and the number of doses after X. Some T/C values carry the count of animals alive at the toxicity check (mostly the fifth day); without a count, all were alive then. Some entries were tested several times; their values stand side by side, smallest first. Some entries give survivors of the animals treated and no T/C: the source holds a T/C of zero for them, seemingly a mark for toxic or unscored doses. Counts of survivors are from the toxicity check (mostly the fifth day) where no day follows; animals may have died later.

Test system: BDF1 mice, colon carcinoma 38 sc, T/C %
Assay: NCI In Vivo Anticancer Drug Screen. Data for tumor model Colon Carcinoma 38 (subcutaneous) in B6D2F1 (BDF1) mice
Conditions: T/C endpoint: median tumor weight (est.), higher T/C = larger tumour; for T/C: evaluated on day 20
Method in brief: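 T/C readout: treated group (T) measurement over vehicle control group (C) measurement. Endpoint is survival or tumor size in mice bearing a transplanted tumor.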

[1] = dose: 100.0 mg/kg/injection, schedule: Q07DX002 (ip), vehicle: Klucel (hydroxypropylcellulose) (HPC)
[2] = dose: 200.0 mg/kg/injection, schedule: Q07DX002 (ip), vehicle: Klucel (hydroxypropylcellulose) (HPC)
[3] = dose: 400.0 mg/kg/injection, schedule: Q07DX002 (ip), vehicle: Klucel (hydroxypropylcellulose) (HPC)
[4] = dose: 25.0 mg/kg/injection, schedule: Q07DX002 (ip), vehicle: saline
[5] = dose: 50.0 mg/kg/injection, schedule: Q07DX002 (ip), vehicle: saline
[6] = dose: 200.0 mg/kg/injection, schedule: Q07DX002 (ip), vehicle: saline with Tween-80

CCC1OCC(C(Cl)CCl)O1 (centres undefined)
T/C [1]: 125 and 140 % of control [9 of 10 alive on day 20]
T/C [2]: 138 % of control [9 of 10 alive on day 20]
T/C [3]: 126 [7 of 10 alive on day 20] and 131 % of control
survivor count (dose: 800.0 mg/kg/injection, schedule: Q07DX002 (ip), vehicle: Klucel (hydroxypropylcellulose) (HPC)): 0 of 10 on day 20

ClCC[Se](Cl)(Cl)c1ccccc1
T/C (dose: 3.12 mg/kg/injection, schedule: Q07DX002 (ip), vehicle: suspension in saline): 149 % of control
survivor count (dose: 12.5 mg/kg/injection, schedule: Q07DX002 (ip), vehicle: suspension in saline): 6 of 10 on day 20
survivor count [4]: 0 of 10 on day 20
survivor count (dose: 25.0 mg/kg/injection, schedule: Q07DX002 (ip), vehicle: suspension in saline): 0 of 10 on day 20
survivor count [5]: 0 of 10 on day 20
survivor count (dose: 50.0 mg/kg/injection, schedule: Q07DX002 (ip), vehicle: suspension in saline): 0 of 10 on day 20

C/C=C(\C)c1cc(=O)c2c(C)cc3c(c2o1)C(=O)c1c(O)c(C2CC(C)(N(C)C)C(O)C(C)O2)cc(C2CC(N(C)C)C(O)C(C)O2)c1C3=O (centres undefined)
survivor count (dose: 2.5 mg/kg/injection, schedule: Q07DX002 (ip), vehicle: saline): 2 of 10 on day 20
survivor count (dose: 5.0 mg/kg/injection, schedule: Q07DX002 (ip), vehicle: saline): 6 of 10 on day 20
survivor count (dose: 2000.0 micrograms/kg/injection, schedule: Q07DX002 (ip), vehicle: saline): 4 of 10 on day 20

C[C@]12CCC(=O)C(O)=C1CC[C@@H]1[C@@H]2CC[C@]2(C)C(=O)CC[C@@H]12
T/C (dose: 25.0 mg/kg/injection, schedule: Q07DX002 (ip), vehicle: Klucel (hydroxypropylcellulose) (HPC)): 125 % of control

CC1(C)OC(=O)N(CO)C1=O
T/C (dose: 12.5 mg/kg/injection, schedule: Q07DX002 (ip), vehicle: saline): 130 % of control
T/C [4]: 140 % of control

O=C1OC(C(O)CO)C(O)=C1O (centres undefined)
T/C [5]: 146 % of control [8 of 10 alive on day 20]
T/C (dose: 100.0 mg/kg/injection, schedule: Q07DX002 (ip), vehicle: saline): 144 % of control [8 of 10 alive on day 20]
T/C (dose: 800.0 mg/kg/injection, schedule: Q07DX002 (ip), vehicle: saline): 142 % of control [8 of 10 alive on day 20]

CC1=C/C(O)CC(=O)Cc2nc(co2)C(=O)N2CCC=C2C(=O)OC(C(C)C)C(C)/C=C\C(=O)NC/C=C\1 (centres undefined)
T/C [1]: 127 % of control
T/C [2]: 128 % of control [9 of 10 alive on day 20]

ClC(Cl)=C(Cl)Cl
T/C (dose: 112.0 mg/kg/injection, schedule: Q07DX002 (ip), vehicle: saline with Tween-80): 133 % of control
survivor count (dose: 400.0 mg/kg/injection, schedule: Q07DX002 (ip), vehicle: other): 2 of 10 on day 20
survivor count (dose: 800.0 mg/kg/injection, schedule: Q07DX002 (ip), vehicle: other): 0 of 10 on day 20
survivor count (dose: 1600.0 mg/kg/injection, schedule: Q07DX002 (ip), vehicle: other): 0 of 10 on day 20 and 5 of 10 on day 20

CSc1cc(=O)n2c3ccccc3c3ccnc1c32
T/C (dose: 80.0 mg/kg/injection, schedule: Q07DX002 (ip), vehicle: saline with Tween-80): 125 % of control

CCCCCCCCCCCCCCCC(=O)OCC1OC(n2ccc(N)nc2=O)C(O)C1O (centres undefined)
survivor count [6]: 0 of 10 on day 20
survivor count (dose: 400.0 mg/kg/injection, schedule: Q07DX002 (ip), vehicle: saline with Tween-80): 0 of 10 on day 20
survivor count (dose: 800.0 mg/kg/injection, schedule: Q07DX002 (ip), vehicle: saline with Tween-80): 0 of 10 on day 20

BrCC[Se]c1ccccc1
T/C (dose: 25.0 mg/kg/injection, schedule: Q07DX002 (ip), vehicle: saline with Tween-80): 127 [8 of 10 alive on day 20] and 149 % of control
survivor count (dose: 50.0 mg/kg/injection, schedule: Q07DX002 (ip), vehicle: saline with Tween-80): 0 of 10 on day 20
survivor count (dose: 100.0 mg/kg/injection, schedule: Q07DX002 (ip), vehicle: saline with Tween-80): 0 of 10 on day 20 and 3 of 10 on day 20
survivor count [6]: 0 of 10 on day 20

O=C(O)/C=C/C(=O)Nc1ccc(Cl)c(Cl)c1
T/C (dose: 12.5 mg/kg/injection, schedule: Q07DX002 (ip), vehicle: Klucel (hydroxypropylcellulose) (HPC)): 127 % of control
survivor count (dose: 25.0 mg/kg/injection, schedule: Q07DX003 (ip), vehicle: Klucel (hydroxypropylcellulose) (HPC)): 6 of 10 on day 20
survivor count (dose: 200.0 mg/kg/injection, schedule: Q07DX003 (ip), vehicle: Klucel (hydroxypropylcellulose) (HPC)): 6 of 10 on day 20
survivor count [3]: 3 of 9 on day 20
survivor count (dose: 400.0 mg/kg/injection, schedule: Q07DX003 (ip), vehicle: Klucel (hydroxypropylcellulose) (HPC)): 1 of 10 on day 20

COc1ccc(/C=C/C(=O)c2cc(C(=O)O)c(OC)cc2OC)cc1OC
T/C (dose: 200.0 mg/kg/injection, schedule: Q07DX002 (ip), vehicle: saline): 137 and 141 % of control
